Experimental data: US20050158322A1
Results are given in words; binding and its absence hold for the method and conditions named.

Columns and labels:
[1] = target: keyhole limpet haemocyanin (Sigma) (keyhole limpet); assay: condition: periplasm diluted 1:5, 1:10 and 1:20; antigen coated at 10 µg/mL; ELISA on coated polyvinyl plates, detection with Mab 9E10
[2] = target: lyzozyme; assay: as above

B1: monovalent scFv fragment (clone pJG1m-25), produced in E. coli (scFv, not shown: small tags and cut ends)
scFv: EVKLVESGGDLVKPGGSLKFSCAASGFPFNRYAMSWVRQTPEKRLEWVAFISSDGIAYYADSVKGRFTISRDNARNILYLQMSSLRSEDTAMYYCARVYYYGSSYFDYWGQGTTLTVSSEGKSSGSGSESKVDDIVMTQSPKFMSTSVGDRVSVTCKASQNAGTNVAWYQQKPGQSPKALIYSASSRNSGVPDRITGSGSGTDFTLTISNVQSEDLAEYFCQQYNSYPLVTFGAGTKLELK
**Q.** What does the source list for B1?
**A.** binding [1]: no binding; binding [2]: no binding
